Over roughly 33,000 sequences, “E-score (-0.5 to 0.5)” has its median near -0.015; the highest 2% begin near 0.3. The list shows a part of the results.
Target: T1, Abf1 (UniProt P14164)
T1 sequence: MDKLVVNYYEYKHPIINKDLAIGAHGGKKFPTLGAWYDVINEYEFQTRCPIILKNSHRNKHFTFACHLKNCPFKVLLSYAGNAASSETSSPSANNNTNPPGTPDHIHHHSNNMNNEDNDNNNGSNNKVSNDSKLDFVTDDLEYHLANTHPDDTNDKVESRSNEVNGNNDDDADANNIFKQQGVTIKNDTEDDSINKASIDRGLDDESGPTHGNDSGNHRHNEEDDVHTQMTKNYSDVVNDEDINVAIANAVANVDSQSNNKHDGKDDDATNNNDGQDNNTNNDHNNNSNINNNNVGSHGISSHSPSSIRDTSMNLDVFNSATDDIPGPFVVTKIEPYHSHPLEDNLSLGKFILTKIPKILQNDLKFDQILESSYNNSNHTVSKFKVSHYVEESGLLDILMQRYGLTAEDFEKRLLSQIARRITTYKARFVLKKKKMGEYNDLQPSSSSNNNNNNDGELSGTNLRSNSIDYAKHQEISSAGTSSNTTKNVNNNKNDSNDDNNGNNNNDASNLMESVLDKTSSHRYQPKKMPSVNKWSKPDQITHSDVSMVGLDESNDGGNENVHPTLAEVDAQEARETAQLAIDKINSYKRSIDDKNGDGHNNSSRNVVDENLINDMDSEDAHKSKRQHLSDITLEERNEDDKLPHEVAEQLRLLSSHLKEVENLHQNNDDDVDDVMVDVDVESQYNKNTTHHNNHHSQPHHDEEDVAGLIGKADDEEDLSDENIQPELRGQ
Test: PBM E-score (8-mer binding enrichment) (E-score (-0.5 to 0.5)); higher = stronger / more preferred TF binding
Conditions: protein concentration: 200 nM; construct: GST-full length
Description: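 Universal 'all 10-mer' protein binding microarrays (Agilent AMADID 015681) probed with GST-tagged S. cerevisiae TFs (full-length or DBD) made by in vitro transcription/translation (PURExpress), about 100-200 nM. Bound TF was detected with fluorescent anti-GST. Each ungapped 8-mer (which stands for itself and its reverse complement) is scored by the PBM enrichment score (E-score), a modified Wilcoxon-Mann-Whitney statistic from -0.5 to +0.5, computed with the Universal PBM Analysis Suite. Scale: above 0.35 generally sequence-specific binding.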

In order of falling “PBM E-score” value:
1. ACTACGTA  0.27
2. AATATTAT  0.256
3. CTAAGTCA  0.254
4. CTGGTGAC  0.249
5. CATTCGTC  0.222
6. CATCCGTA  0.197
7. CGAAAACC  0.197
8. AACGACAG  0.196
9. AAACGAGC  0.185
10. AGCCATCA  0.175
11. CGTTCTGC  0.168
12. GTAGATGA  0.165
13. CGGGAACA  0.153
14. AGCATATC  0.151
15. TGACTACA  0.148
16. AATATTGT  0.146
17. TCTTGGCA  0.142
18. CGTTAACC  0.135
19. CAGATTGA  0.131
20. CACACGTG  0.11
21. AATTCGCC  0.0956
22. AATCTAAC  0.0902
23. ACTCCGTC  0.0889
24. ATGATCCA  0.0885
25. ACAAGACG  0.0792
26. AGAAACTG  0.0645
27. ATCTAGTG  0.0606
28. CTTGTACA  0.0566
29. AATCTTAG  0.0566
30. ACGTGTGG  0.0381
31. CGACTTAA  0.0356
32. CAATAGTG  0.0351
33. AATCTAAG  0.0341
34. CTACGTGA  0.028
35. CGAACTGC  0.0272
36. GCCCGAAC  0.0158
37. ATCCAGGA  0.0113
38. GGTTGGCA  0.00596
39. TGGATCCA  0.00427
40. GATCAAGC  0.00038
41. CACTTGGA  -3e-05
42. ATAGCTGC  -0.00161
43. ATTCGAGA  -0.00241
44. GGAAAGCA  -0.00322
45. AGTTTAAT  -0.00834
46. AAGGTATG  -0.0138
47. CCCAACTA  -0.0157
48. GATCCCAC  -0.0169
49. TCTAGGAA  -0.0176
50. AGTAAGGG  -0.02
51. AAACCGCT  -0.0212
52. GAAGAGTA  -0.0231
53. AAGTGGGA  -0.0291
54. ACATGGTC  -0.034
55. AGTGTTAT  -0.035
56. AGATACTA  -0.0355
57. GAGCAAAA  -0.0367
58. GACTGAAA  -0.037
59. ATTCACCA  -0.0382
60. GACGCCAA  -0.0398
61. GAGCACCA  -0.0414
62. AGAGTCAC  -0.0475
63. ACACGTCT  -0.0482
64. AGCGCTAC  -0.0511
65. GAGAAAGA  -0.0528
66. GGGCAAAC  -0.0564
67. TGTCGAAA  -0.0585
68. CCAACATC  -0.0685
69. GCGGGCAA  -0.0707
70. ACATTCGG  -0.0724
71. GGCAATAA  -0.0733
72. ACCAAGCC  -0.0773
73. CTGCCATA  -0.0819
74. ACTAGTAA  -0.0823
75. AAAGAGGG  -0.0837
76. CAAGACTG  -0.0899
77. CCCATCTA  -0.0904
78. GCGTTTGA  -0.0947
79. AGCTAGCC  -0.102
80. AAGGCTAC  -0.103
81. AGGCCCTA  -0.113
82. TAGCCGGA  -0.117
83. AGTTGTGG  -0.12
84. ACACCATA  -0.12
85. TAACCATA  -0.128
86. AAATAGAG  -0.137
87. CTCGGCAC  -0.145
88. CACTACGC  -0.146
89. ATTTGCGC  -0.15
90. CAGGTAGG  -0.155
91. CTACACCA  -0.157
92. AACCATAC  -0.166
93. CCAAGCTA  -0.17
94. AGGGGTGG  -0.182
95. CTCTCGGC  -0.184
96. GGCGAAAC  -0.192
97. GAACAGCC  -0.195
98. CCCAGAAA  -0.197
99. CTCCTGCC  -0.198
100. GGAAGGAA  -0.216
101. GGTGGAGA  -0.231
102. CCCGAGAG  -0.242
103. CGCCTGGC  -0.274
104. CCTCAACC  -0.283
105. CCGCCAAG  -0.295
106. CAACTGCG  -0.3
107. AGTCCCTC  -0.31
108. CCTGAGCC  -0.313
109. CTCCCTCC  -0.329

Source: the supplement of paper PMC3334620
